Laboratory results published in article PMC10575729.
These are yes or no findings as the source states them, for the method shown. Binding seen in cells or lysates may run through a third protein. Some binding calls cover weakened binding; strength is not graded here.

By UniProt entry, the sequences of proteins in these tests, tags left out.
UniProt Q9H4Z3: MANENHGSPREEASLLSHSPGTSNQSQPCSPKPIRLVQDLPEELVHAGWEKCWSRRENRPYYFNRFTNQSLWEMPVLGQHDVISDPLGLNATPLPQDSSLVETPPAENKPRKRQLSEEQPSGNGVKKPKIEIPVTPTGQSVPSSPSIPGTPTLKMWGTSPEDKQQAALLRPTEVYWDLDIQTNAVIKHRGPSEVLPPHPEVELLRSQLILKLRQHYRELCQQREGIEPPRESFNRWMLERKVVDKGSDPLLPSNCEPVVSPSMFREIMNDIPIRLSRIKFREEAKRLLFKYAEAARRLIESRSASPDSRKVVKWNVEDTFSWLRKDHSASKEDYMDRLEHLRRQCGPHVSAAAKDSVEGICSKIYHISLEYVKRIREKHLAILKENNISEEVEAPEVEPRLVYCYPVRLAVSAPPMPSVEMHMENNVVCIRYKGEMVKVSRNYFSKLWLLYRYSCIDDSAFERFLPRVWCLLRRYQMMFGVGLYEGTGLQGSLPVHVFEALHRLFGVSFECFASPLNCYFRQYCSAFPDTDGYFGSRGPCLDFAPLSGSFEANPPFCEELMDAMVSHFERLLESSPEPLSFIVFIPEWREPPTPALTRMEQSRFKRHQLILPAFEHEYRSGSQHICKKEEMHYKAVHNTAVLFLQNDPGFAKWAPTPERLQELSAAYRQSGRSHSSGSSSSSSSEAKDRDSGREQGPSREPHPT

Experiments:
[1] = target: Phosphorylated RNA polymerase II CTD-interacting factor 1 (PCIF1), endogenous (human (endogenous in SCC25)) (UniProt Q9H4Z3); assay: co-IP; endogenous PCIF1 and CTBP2 in SCC25 cells; IP buffer (Beyotime), 2 ug primary antibody, magnetic beads, Western blot
GST-CTBP2 = GST-CTBP2 (UniProt P56545); assay: pull-down; GST-CTBP2 or GST control incubated with lysates of SCC1 cells transfected with PCIF1-FLAG for 2 hours at 4°C, bound to GST beads; blot with anti-FLAG and anti-GST (the results call both proteins purified recombinant); only the target purified

| Substance | binding [1] | binding (GST-CTBP2) |
| --- | --- | --- |
| C-terminal binding protein 2 (CTBP2), endogenous (from UniProt P56545 1-445) | binds | – |
| FLAG-PCIF1 (GST pull-down) (from UniProt Q9H4Z3 1-704) | – | binds |
